Data from the supplement of paper PMC10849652.
Some of the results follow.

Protein sequences, listed by entry. Tags and fused reporters are not part of them. Lines headed by an entry give the natural chain unless they say otherwise; changes in a name come on top.
UniProt O94992, whole entry, looked up: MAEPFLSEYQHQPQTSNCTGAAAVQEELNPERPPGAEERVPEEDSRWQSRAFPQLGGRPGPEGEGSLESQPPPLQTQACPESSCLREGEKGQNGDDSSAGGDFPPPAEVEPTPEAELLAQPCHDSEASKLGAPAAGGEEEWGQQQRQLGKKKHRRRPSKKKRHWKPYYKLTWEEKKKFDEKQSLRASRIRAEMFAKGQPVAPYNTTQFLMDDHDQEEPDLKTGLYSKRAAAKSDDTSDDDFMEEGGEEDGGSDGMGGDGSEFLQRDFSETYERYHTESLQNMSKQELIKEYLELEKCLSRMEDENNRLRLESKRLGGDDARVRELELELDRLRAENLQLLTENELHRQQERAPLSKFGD
UniProt Q8N4P3, whole entry, looked up: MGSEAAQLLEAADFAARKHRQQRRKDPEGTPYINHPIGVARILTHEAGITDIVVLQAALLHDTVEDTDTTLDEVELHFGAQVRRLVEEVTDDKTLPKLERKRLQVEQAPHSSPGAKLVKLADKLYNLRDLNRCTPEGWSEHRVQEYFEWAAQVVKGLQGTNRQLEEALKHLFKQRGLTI
UniProt P13984, whole entry, looked up: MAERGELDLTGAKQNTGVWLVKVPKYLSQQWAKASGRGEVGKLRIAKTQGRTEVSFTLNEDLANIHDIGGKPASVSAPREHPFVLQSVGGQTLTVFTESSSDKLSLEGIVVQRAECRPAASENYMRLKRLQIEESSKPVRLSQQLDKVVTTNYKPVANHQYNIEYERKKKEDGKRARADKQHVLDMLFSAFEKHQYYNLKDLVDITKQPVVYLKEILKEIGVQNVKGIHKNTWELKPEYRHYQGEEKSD
UniProt P04921: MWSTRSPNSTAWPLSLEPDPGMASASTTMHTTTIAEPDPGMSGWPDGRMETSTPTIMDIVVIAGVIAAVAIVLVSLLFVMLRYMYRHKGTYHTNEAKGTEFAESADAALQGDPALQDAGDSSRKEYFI
UniProt Q00341: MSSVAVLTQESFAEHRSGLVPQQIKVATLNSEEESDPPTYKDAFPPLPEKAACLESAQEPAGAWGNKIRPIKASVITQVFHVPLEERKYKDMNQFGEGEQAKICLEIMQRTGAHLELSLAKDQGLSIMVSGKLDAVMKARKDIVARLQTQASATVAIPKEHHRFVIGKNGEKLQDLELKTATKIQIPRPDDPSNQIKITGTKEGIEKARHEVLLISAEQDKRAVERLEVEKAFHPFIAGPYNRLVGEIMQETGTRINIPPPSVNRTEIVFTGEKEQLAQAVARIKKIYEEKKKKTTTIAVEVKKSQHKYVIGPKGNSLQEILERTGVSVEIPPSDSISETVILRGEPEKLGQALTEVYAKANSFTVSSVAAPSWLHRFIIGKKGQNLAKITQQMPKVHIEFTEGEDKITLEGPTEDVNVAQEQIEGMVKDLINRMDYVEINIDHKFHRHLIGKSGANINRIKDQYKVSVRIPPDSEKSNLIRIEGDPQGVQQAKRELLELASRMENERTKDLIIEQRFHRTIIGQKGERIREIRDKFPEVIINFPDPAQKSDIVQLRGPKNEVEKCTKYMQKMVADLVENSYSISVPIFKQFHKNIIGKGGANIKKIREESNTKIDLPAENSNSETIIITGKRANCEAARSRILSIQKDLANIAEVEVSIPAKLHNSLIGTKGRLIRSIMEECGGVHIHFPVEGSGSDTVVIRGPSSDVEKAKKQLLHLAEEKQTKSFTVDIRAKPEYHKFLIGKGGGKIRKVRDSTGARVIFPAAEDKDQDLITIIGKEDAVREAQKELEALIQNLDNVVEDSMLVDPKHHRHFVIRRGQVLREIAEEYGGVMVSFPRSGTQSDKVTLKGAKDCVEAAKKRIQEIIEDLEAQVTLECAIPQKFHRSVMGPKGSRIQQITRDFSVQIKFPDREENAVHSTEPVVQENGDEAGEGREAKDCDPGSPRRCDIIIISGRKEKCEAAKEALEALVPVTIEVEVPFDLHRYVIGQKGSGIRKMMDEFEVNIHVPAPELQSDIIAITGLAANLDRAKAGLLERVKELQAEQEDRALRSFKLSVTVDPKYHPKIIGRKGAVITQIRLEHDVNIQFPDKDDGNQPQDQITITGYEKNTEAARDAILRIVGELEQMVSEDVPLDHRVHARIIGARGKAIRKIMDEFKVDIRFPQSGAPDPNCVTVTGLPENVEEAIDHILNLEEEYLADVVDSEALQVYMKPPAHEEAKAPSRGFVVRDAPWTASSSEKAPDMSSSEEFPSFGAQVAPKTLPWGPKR
UniProt O00178: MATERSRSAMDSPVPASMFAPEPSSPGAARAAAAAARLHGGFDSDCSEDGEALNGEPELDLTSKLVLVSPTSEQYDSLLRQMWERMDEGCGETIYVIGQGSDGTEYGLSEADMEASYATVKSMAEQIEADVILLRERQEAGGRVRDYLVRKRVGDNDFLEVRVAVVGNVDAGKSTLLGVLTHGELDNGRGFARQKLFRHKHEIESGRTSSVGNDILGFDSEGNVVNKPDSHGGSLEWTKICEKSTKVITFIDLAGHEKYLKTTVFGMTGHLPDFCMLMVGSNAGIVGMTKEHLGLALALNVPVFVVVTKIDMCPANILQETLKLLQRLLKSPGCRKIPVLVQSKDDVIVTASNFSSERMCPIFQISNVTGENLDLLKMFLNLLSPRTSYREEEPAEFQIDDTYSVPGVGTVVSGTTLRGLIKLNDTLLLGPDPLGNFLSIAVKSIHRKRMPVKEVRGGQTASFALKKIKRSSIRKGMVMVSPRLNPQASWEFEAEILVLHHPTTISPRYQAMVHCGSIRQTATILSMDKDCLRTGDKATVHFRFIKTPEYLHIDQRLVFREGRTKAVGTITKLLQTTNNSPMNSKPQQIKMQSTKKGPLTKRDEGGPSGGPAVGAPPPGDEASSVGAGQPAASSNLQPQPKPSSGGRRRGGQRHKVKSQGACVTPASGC
UniProt P42694: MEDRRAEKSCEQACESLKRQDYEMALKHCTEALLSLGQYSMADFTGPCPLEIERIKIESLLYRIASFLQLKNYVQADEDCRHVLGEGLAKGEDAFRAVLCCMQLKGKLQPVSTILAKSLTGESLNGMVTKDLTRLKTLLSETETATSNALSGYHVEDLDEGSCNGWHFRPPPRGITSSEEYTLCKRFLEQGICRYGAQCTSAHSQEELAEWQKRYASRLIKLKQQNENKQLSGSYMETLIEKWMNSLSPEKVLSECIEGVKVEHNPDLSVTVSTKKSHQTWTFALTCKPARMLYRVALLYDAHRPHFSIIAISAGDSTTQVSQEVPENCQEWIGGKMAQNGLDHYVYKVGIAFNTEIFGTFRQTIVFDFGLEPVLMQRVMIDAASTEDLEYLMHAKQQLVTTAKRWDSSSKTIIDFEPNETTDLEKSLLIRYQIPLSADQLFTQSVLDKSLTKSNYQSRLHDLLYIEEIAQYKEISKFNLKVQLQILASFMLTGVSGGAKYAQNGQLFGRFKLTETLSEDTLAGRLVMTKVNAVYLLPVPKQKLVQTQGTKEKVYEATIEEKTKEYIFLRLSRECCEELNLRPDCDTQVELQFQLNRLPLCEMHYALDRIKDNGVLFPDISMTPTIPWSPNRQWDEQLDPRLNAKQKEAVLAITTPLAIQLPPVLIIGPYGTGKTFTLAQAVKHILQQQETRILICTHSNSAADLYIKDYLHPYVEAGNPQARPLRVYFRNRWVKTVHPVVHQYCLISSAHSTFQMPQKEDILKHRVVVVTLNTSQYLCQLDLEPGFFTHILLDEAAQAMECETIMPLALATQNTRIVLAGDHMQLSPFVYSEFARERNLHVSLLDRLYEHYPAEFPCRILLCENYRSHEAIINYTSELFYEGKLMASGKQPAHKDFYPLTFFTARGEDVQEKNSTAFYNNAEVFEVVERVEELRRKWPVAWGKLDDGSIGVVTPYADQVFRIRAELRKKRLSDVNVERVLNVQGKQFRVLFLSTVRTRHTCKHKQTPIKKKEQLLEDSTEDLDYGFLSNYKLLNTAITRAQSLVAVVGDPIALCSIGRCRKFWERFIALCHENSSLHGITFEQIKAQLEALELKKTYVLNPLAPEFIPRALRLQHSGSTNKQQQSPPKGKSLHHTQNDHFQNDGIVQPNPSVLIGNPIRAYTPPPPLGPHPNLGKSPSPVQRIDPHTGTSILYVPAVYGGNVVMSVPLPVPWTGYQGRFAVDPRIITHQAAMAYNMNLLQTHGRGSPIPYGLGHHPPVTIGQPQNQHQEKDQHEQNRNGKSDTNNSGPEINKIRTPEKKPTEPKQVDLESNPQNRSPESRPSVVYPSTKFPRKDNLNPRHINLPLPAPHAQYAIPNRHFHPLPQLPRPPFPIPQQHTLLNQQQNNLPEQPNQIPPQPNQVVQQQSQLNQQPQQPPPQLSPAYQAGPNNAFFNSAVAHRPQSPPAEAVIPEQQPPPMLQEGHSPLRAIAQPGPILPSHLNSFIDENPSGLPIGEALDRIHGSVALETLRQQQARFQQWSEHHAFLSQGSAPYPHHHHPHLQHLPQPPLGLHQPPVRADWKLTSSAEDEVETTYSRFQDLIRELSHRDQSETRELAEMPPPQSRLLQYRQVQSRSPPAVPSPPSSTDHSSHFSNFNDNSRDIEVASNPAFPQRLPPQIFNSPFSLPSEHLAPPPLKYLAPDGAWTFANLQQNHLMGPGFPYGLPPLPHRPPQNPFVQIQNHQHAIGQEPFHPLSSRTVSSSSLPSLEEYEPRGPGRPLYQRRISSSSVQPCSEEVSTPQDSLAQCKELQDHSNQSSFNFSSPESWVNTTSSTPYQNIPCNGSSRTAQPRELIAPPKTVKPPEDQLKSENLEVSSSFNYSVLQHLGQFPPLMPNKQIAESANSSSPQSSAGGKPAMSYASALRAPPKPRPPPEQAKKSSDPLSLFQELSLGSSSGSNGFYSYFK
UniProt Q8N442: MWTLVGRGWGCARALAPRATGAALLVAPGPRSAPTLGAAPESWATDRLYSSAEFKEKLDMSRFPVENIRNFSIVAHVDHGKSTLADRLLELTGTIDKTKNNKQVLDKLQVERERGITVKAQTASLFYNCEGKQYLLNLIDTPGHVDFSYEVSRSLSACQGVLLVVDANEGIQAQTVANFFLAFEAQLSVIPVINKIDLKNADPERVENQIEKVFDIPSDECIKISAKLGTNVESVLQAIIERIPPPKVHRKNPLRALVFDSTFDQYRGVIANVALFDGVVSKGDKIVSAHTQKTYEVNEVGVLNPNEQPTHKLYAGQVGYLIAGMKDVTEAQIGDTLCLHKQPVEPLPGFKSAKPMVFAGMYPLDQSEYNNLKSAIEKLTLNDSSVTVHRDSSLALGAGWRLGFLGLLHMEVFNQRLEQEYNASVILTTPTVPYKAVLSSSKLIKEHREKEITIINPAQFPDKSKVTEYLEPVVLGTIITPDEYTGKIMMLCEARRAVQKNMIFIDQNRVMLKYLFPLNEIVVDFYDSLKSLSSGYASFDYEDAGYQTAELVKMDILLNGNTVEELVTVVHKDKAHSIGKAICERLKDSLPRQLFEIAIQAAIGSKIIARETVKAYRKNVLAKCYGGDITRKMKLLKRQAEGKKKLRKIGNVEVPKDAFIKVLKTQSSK
UniProt Q8TDG4: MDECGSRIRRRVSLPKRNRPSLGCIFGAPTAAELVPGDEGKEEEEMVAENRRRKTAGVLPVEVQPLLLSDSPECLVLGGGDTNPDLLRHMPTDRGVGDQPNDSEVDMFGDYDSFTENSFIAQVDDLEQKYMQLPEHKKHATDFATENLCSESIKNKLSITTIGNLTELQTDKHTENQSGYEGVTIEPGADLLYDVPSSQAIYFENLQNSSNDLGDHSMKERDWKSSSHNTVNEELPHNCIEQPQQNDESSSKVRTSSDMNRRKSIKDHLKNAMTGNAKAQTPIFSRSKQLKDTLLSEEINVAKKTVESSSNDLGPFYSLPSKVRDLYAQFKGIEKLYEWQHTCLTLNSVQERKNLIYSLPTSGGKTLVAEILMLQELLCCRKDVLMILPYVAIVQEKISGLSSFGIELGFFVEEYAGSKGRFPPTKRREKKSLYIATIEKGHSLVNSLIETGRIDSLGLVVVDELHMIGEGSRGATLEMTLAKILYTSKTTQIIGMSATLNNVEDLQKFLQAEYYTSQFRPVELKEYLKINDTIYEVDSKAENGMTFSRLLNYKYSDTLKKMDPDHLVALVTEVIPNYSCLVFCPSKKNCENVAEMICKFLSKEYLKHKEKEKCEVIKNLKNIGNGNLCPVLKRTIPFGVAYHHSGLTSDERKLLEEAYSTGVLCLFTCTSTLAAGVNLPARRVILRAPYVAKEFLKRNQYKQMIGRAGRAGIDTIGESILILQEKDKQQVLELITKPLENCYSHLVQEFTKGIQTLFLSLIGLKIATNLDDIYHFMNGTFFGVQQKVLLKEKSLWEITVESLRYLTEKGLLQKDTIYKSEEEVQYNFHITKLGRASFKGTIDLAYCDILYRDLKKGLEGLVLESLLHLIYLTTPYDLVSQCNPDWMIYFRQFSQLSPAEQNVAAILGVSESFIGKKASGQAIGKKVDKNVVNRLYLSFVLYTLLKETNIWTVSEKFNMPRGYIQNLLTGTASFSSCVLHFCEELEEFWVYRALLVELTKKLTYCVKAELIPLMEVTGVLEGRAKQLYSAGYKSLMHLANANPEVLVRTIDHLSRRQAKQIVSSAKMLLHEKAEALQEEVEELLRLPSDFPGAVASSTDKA

Legend:
Test in all cases: log2 fold change, soluble protein after heating vs DMSO (PISA); higher = thermal stabilisation; K562 cells, 10 uM, 30 min; active = over 0.2 and 3.5 SD of the protein, either way, in both replicates (recomputed)
[1] = compound: NC(=O)Nc1cc(-c2cccc(F)c2)sc1C(=O)N[C@H]1CCCNC1
Procedure, shortened: (§1)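 K562 cells at 2×10^6 cells/mL were treated for 30 min with 10 μM compound, and aliquots were heated for 3 min over 48°C-58°C before pooling. Extraction used PBS with 0.5% NP-40 at 4°C, and soluble protein was the supernatant after 21,000xg for 90 min, measured by TMTpro 16plex LC-MS/MS with channel sums equalised. Thermal stability values, relative to control samples and from duplicates, are log2 fold changes.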

[2] = compound: NC(=O)c1cnc(N[C@@H]2CCCC[C@@H]2N)nc1Nc1cccc(-n2nccn2)c1
Procedure, shortened: as §1

[3] = compound: NC1(c2ccc(-c3nc4ccn5c(=O)[nH]nc5c4cc3-c3ccccc3)cc2)CCC1
Procedure, shortened: as §1

[4] = compound: NCC(=O)Nc1ccc(-n2nc(C(F)(F)F)cc2-c2ccc3c(ccc4ccccc43)c2)cc1
Procedure, shortened: as §1

[5] = compound: Nc1ccccc1NC(=O)c1ccc(CNC(=O)OCc2cccnc2)cc1 [entinostat]
Procedure, shortened: as §1

[6] = compound: O=C(CCCCCCC(=O)Nc1ccccc1)NO [vorinostat]
Procedure, shortened: as §1

[7] = compound: O=C(CCCCCCNC(=O)c1cnc(N(c2ccccc2)c2ccccc2Cl)nc1)NO [citarinostat]
Procedure, shortened: as §1

[8] = compound: O=C(O)c1ccc2c(c1)nc(Nc1cccc(Cl)c1)c1ccncc12 [silmitasertib]
Procedure, shortened: as §1

[9] = compound: O=C1NC(=O)C(c2cnc3ccccn23)=C1c1cn2c3c(cc(F)cc13)CN(C(=O)N1CCCCC1)CC2
Procedure, shortened: as §1

[10] = compound: c1cc(OCCN2CCCCC2)cc(-c2n[nH]c3ccc(-c4nnc[nH]4)cc23)c1
Procedure, shortened: as §1

[11] = compound: c1cn2cc(-c3ccc4cn[nH]c4c3)nc(Nc3ccc(N4CCOCC4)cc3)c2n1 [entospletinib]
Procedure, shortened: as §1

Measured: log2 fold change

GTPBP3 isoform 2 (UniProt Q969Y2)
inactive: [1] 0.006 | [2] 0.028 | [3] -0.028 | [4] -0.052 | [5] 0 | [6] -0.043 | [7] -0.085 | [8] 0.018 | [9] -0.024 | [10] -0.149 | [11] 0.064

H1-3 (UniProt P16402)
inactive: [1] 0.103 | [2] 0.136 | [3] 0.261 | [4] 0.187 | [5] -0.004 | [6] 0.119 | [7] -0.099 | [8] 0.025 | [9] 0.154 | [10] -0.112 | [11] 0.054

HEXIM1 (UniProt O94992)
inactive: [1] -0.041 | [2] -0.123 | [3] 0.058 | [4] 0.09 | [5] -0.042 | [6] -0.071 | [7] 0 | [8] -0.048 | [9] 0.062 | [10] -0.051 | [11] 0.04

HARS2 (UniProt P49590)
inactive: [1] -0.05 | [2] 0.069 | [3] -0.014 | [4] -0.015 | [5] -0.035 | [6] -0.048 | [7] -0.035 | [8] 0.055 | [9] -0.017 | [10] -0.059 | [11] 0.005

HCCS (UniProt P53701)
inactive: [1] -0.039 | [2] -0.082 | [3] -0.02 | [4] -0.029 | [5] -0.038 | [6] -0.014 | [7] -0.016 | [8] 0.042 | [9] -0.021 | [10] -0.058 | [11] 0.063

HACL1 (UniProt Q9UJ83)
inactive: [1] 0.084 | [2] 0.005 | [3] -0.037 | [4] 0.06 | [5] 0.027 | [6] 0 | [7] 0.035 | [8] 0 | [9] 0.054 | [10] 0.01 | [11] 0.028

HDDC3 (UniProt Q8N4P3)
inactive: [1] 0.026 | [2] -0.068 | [3] -0.005 | [4] -0.033 | [5] -0.006 | [6] 0.069 | [7] -0.018 | [8] 0.003 | [9] -0.093 | [10] -0.049 | [11] 0.046

GTF2F2 (UniProt P13984)
inactive: [1] 0.006 | [2] -0.036 | [3] -0.063 | [4] -0.05 | [5] 0.008 | [6] 0.051 | [7] 0.028 | [8] -0.043 | [9] -0.081 | [10] -0.039 | [11] 0.001

GYPC (UniProt P04921)
inactive: [1] -0.228 | [2] -0.011 | [3] 0.166 | [4] 0.057 | [5] -0.039 | [6] 0.071 | [7] 0.021 | [8] -0.069 | [9] -0.192 | [10] -0.108 | [11] -0.062

HDAC4 (UniProt P56524)
inactive: [1] -0.007 | [2] 0.084 | [3] -0.03 | [4] -0.039 | [5] -0.065 | [6] 0.103 | [7] -0.051 | [8] -0.021 | [9] 0.009 | [10] -0.064 | [11] 0.137

HCFC1 isoform 4 (UniProt P51610)
inactive: [1] 0.025 | [2] -0.04 | [3] -0.033 | [4] -0.063 | [5] 0.011 | [6] 0.015 | [7] 0.026 | [8] -0.01 | [9] -0.02 | [10] -0.022 | [11] -0.05

H1-5 (UniProt P16401)
inactive: [1] 0.136 | [2] 0.12 | [3] 0.254 | [4] 0.162 | [5] 0.013 | [6] 0.108 | [7] -0.109 | [8] 0.069 | [9] 0.174 | [10] -0.152 | [11] 0.035

H1-2 (UniProt P16403)
inactive: [1] 0.079 | [2] 0.072 | [3] 0.286 | [4] 0.127 | [5] 0.036 | [6] 0.05 | [7] -0.124 | [8] 0.083 | [9] 0.195 | [10] -0.196 | [11] 0.091

HEATR5A (UniProt Q86XA9)
inactive: [1] -0.069 | [2] -0.121 | [3] -0.225 | [4] -0.135 | [5] 0.023 | [6] 0.114 | [7] 0.021 | [8] 0.165 | [9] -0.006 | [10] -0.128 | [11] 0.11

H4C1 (UniProt P62805)
inactive: [1] 0.015 | [2] 0.294 | [3] 0.527 | [4] -0.054 | [5] 0.095 | [6] 0.522 | [7] -0.059 | [8] -0.089 | [9] 0.06 | [10] -0.009 | [11] 0.054

HDLBP (UniProt Q00341)
inactive: [1] 0.105 | [2] 0.001 | [3] 0.201 | [4] 0.048 | [5] 0.086 | [6] 0.075 | [7] -0.045 | [8] 0.228 | [9] 0.396 | [10] -0.173 | [11] 0.195

GTPBP1 (UniProt O00178)
inactive: [1] -0.011 | [2] 0.048 | [3] -0.017 | [4] 0.004 | [5] -0.008 | [6] 0.031 | [7] 0.031 | [8] -0.002 | [9] -0.013 | [10] -0.092 | [11] -0.044

Fetched one by one from the list above, 2 records:
H4C1 (UniProt P62805)
inactive: [1] 0.015 | [2] 0.294 | [3] 0.527 | [4] -0.054 | [5] 0.095 | [6] 0.522 | [7] -0.059 | [8] -0.089 | [9] 0.06 | [10] -0.009 | [11] 0.054

H1-2 (UniProt P16403)
inactive: [1] 0.079 | [2] 0.072 | [3] 0.286 | [4] 0.127 | [5] 0.036 | [6] 0.05 | [7] -0.124 | [8] 0.083 | [9] 0.195 | [10] -0.196 | [11] 0.091

Next results follow:

HERC1 (UniProt Q15751)
inactive: [1] -0.017 | [2] 0.012 | [3] -0.076 | [4] -0.015 | [5] -0.008 | [6] -0.003 | [7] 0.03 | [8] 0.067 | [9] 0.017 | [10] -0.053 | [11] 0.003

HBS1L (UniProt Q9Y450)
inactive: [1] -0.03 | [2] -0.035 | [3] -0.083 | [4] -0.063 | [5] 0.032 | [6] 0.071 | [7] 0.016 | [8] 0.011 | [9] -0.013 | [10] -0.039 | [11] -0.013

HELZ (UniProt P42694)
inactive: [1] 0.054 | [2] 0.111 | [3] 0.055 | [4] -0.044 | [5] 0.022 | [6] 0.044 | [7] 0.125 | [8] 0.09 | [10] -0.067 | [11] 0.077

H1-4 (UniProt P10412)
inactive: [1] 0.17 | [2] 0.074 | [3] 0.3 | [4] 0.093 | [5] 0.025 | [6] 0.097 | [7] -0.056 | [8] 0.086 | [9] 0.148 | [10] -0.279 | [11] 0.156

HDAC1 (UniProt Q13547)
active: [6] 1.79 | [7] 1.52
inactive: [1] -0.015 | [2] 0.128 | [3] -0.017 | [4] 0.006 | [8] 0.06 | [9] -0.03 | [10] 0.003

HDAC7 isoform 5 (UniProt Q8WUI4)
inactive: [1] 0.009 | [2] 0.123 | [3] 0.188 | [4] -0.036 | [6] 0.027 | [7] 0.032 | [8] 0.021 | [9] 0.032 | [10] -0.163

GUF1 (UniProt Q8N442)
inactive: [1] 0.003 | [2] -0.078 | [3] -0.009 | [4] 0.002 | [5] 0.011 | [6] -0.009 | [7] 0.023 | [8] 0.096 | [10] -0.079 | [11] 0.213

HEATR1 (UniProt Q9H583)
inactive: [1] 0.012 | [2] -0.105 | [3] 0.154 | [4] 0.143 | [5] -0.042 | [6] 0.057 | [8] 0.005 | [9] 0.036

HELQ (UniProt Q8TDG4)
inactive: [1] -0.199 | [2] 0.052 | [3] -0.062 | [4] -0.091 | [5] 0.152 | [6] 0.047 | [7] 0.037 | [8] -0.128 | [9] 0.052 | [10] -0.07 | [11] 0.036

HEATR6 (UniProt Q6AI08)
inactive: [1] -0.001 | [2] -0.042 | [3] -0.038 | [4] 0.048 | [5] 0.067 | [7] -0.054 | [8] 0 | [9] 0.015 | [10] -0.009 | [11] 0.034

GSTCD (UniProt Q8NEC7)
inactive: [1] 0.039 | [2] -0.115 | [3] -0.154 | [4] -0.077 | [5] 0.014 | [7] -0.018 | [8] -0.113 | [9] 0.011 | [10] -0.012 | [11] 0.079
